From PMC5665528
Numbering of substitutions follows the chain as printed. No constants are given. Whether binding was seen depends on the method and setting. Binding seen in cells or lysates may run through a third protein. Some results given as binding are weak or reduced against the parent protein; the word gives no strength.

By UniProt entry, the sequences of proteins in these tests, tags left out.
UniProt Q5F3K4: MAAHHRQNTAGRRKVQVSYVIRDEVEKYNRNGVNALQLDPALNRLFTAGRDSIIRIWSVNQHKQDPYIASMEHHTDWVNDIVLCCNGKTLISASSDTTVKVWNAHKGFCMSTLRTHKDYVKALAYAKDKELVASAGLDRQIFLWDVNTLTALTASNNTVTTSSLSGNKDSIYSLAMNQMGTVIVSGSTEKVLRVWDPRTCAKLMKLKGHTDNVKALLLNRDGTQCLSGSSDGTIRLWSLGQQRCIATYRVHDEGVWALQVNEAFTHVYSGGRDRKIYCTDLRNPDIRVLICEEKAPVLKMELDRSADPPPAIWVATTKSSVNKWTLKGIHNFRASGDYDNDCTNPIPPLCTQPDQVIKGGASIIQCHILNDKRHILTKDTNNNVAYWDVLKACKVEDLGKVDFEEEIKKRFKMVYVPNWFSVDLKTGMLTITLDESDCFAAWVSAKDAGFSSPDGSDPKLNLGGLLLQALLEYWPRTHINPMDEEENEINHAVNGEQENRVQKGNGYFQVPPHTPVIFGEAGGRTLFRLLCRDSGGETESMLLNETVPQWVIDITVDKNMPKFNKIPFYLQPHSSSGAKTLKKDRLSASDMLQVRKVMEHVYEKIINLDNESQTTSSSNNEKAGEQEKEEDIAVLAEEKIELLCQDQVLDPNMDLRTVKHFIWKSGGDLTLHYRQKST

Tests used:
[1] = molecular target: T1, chUSP1^CH91,594SA (on chUSP1^FL) (chicken) (UniProt F1NPR3); experiment: pull-down; N-terminally hexa-His tagged chUSP1 (bait, with or without catalytic core mutations) and untagged chUAF1 co-expressed in Sf9 cells (co-infection, MOI 1, 72 h); lysate on a Ni-NTA column (50 mM Tris HCl pH 8.0, 10% glycerol, 500 mM NaCl, imidazole gradient); Coomassie gel and Western blot
T1 sequence: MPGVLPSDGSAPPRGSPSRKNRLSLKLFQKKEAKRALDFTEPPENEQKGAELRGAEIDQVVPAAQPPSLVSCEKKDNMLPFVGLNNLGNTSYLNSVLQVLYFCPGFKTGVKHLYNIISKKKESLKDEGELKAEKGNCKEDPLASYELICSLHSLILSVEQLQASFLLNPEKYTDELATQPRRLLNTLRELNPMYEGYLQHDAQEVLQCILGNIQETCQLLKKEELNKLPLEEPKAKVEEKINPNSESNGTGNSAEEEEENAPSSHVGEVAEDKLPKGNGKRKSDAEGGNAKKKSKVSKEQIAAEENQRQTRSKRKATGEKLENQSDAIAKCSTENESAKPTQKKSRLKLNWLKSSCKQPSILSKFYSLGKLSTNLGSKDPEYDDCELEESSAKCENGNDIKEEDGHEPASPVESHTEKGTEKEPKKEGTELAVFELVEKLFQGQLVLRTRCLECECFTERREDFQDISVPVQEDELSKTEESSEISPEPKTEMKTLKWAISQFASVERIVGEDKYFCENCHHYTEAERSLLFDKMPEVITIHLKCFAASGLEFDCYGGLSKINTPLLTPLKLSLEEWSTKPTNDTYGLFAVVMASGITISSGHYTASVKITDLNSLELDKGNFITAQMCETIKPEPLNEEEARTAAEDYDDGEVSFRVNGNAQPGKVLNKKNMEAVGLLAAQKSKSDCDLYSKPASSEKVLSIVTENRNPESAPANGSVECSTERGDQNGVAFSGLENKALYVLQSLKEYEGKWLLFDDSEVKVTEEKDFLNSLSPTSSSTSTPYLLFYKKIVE

[2] = molecular target: T2, chUSP1^D758A (on chUSP1^FL) (chicken) (UniProt F1NPR3); experiment: as above
T2 sequence: T1 sequence with S91C, A594H, D758A

[3] = molecular target: T3, chUSP1^C91A (on chUSP1^FL) (chicken) (UniProt F1NPR3); experiment: as above
T3 sequence: T1 sequence with S91A, A594H

[4] = molecular target: T4, chUSP1^C91S (on chUSP1^FL) (chicken) (UniProt F1NPR3); experiment: as above
T4 sequence: T1 sequence with A594H

[5] = molecular target: chicken ubiquitin-specific protease 1, chUSP1^GG680,681AA double mutant (full-length control) (chicken) (UniProt F1NPR3); experiment: as above
[6] = molecular target: T5, chUSP1^H594A (on chUSP1^FL) (chicken) (UniProt F1NPR3); experiment: as above
T5 sequence: T1 sequence with S91C

[7] = molecular target: T6, chUSP1^H603A (on chUSP1^FL) (chicken) (UniProt F1NPR3); experiment: as above
T6 sequence: T1 sequence with S91C, A594H, H603A

[8] = molecular target: chicken ubiquitin-specific protease 1, chUSP1^GG680,681AA double mutant (full-length control) (chicken) (UniProt F1NPR3); experiment: pull-down; purified hexa-His tagged chUSP1^FL bound to Ni-NTA resin as bait; Sf9 cell lysate with untagged chUAF1 as prey, 1 hour at 4°C in lysis buffer (50 mM Tris HCl pH 8.0, 10% glycerol, 500 mM NaCl, 10 mM imidazole); eluted with 300 mM imidazole; Western blot; only the target purified

Measured: binding

chicken USP associated factor 1, untagged (from UniProt Q5F3K4 1-678)
binds: all assays above
